Experimental data reported in PubChem BioAssay AID2685 (National Center for Advancing Translational Sciences (NCATS), 2010).
The list shows a part of the results. These are further read-outs of the screen, such as a control signal, another cell line or another target. No call is given for them. The list favours compounds with an active or inconclusive main result. Potencies come from curve fits of mixed quality, noted in brackets.

Assay: qHTS Assay for Lipid Storage Modulators in Drosophila S3 Cells;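 as to cell number change: cells counted by Cell Tracker Red CMTPX staining in the red channel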
Conditions: BODIPY lipid droplet fluorescence, 18-24 h; for cell number change: measured here: cell count max response, cells fed with added oleic acid
Summary of the method: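 Drosophila S3 cells got compounds at several concentrations plus oleic acid (400 uM solution). Laser-scanning cytometry with 488 nm excitation read lipid droplets at 500-530 nm and cells at 575-640 nm. Percent activity was relative to 20 uM Triacsin C.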

[1] = measured here: cell number channel AC50, cells fed with added oleic acid
[2] = measured here: lipid fluorescence (Fed channel) AC50, cells fed with added oleic acid

COc1cccc(CN2C(=O)CCC2(C)C(=O)NC2CCCC2)c1 (centres undefined)
cell number change: -41.9% | AC50 [1]: 29.1 µM [falling, single point]

Cc1cc(C)nc(N2CCC(C(=O)Nc3ccc4c(c3)CCC4)CC2)n1
cell number change: -91.8% | AC50 [1]: 23.1 µM [falling, partial curve]

COc1ccc(C(=O)NC(=S)Nc2ccccc2N2CCN(S(C)(=O)=O)CC2)cc1OC
cell number change: -0.131% | AC50 [2]: 7.31 µM [falling, single point]

COc1cccc(C(=O)N2CCN(c3ccc(N4CCOCC4)nn3)CC2)c1
cell number change: -12.1%

C=CCNC(=O)/C(C#N)=C/c1c(N(Cc2ccccc2)Cc2ccccc2)nc2ccccn2c1=O
cell number change: -16.2%

CCOc1cc(N2CCOCC2)c(OCC)cc1NC(=O)COC(=O)CCOc1cc(C)ccc1C
cell number change: 5.49%

COc1ccc(S(=O)(=O)Cc2ccc(C(=O)N3CC(C)CC(C)C3)o2)cc1 (centres undefined)
cell number change: 10.1%

O=C(CCNC(=O)c1ccc(Br)cc1)OCc1ccccc1Cl
cell number change: 4.28% | AC50 [2]: 25.9 µM [falling, partial curve, poor fit]

Cc1ccc(Cn2nc(-c3ccccc3)nc2-c2ccccc2)cc1
AC50 [1]: 1.46 µM [rising, full curve, poor fit]

COC(=O)Cn1c(=O)c2c(nc(Br)n2Cc2ccccc2Cl)n(C)c1=O
cell number change: 29.6% | AC50 [2]: 4.61 µM [rising, partial curve, poor fit]

CC(C)N(CCNS(=O)(=O)c1ccc(Cl)cc1)C(C)C
cell number change: -15.1% | AC50 [1]: 4.11 µM [falling, single point] | AC50 [2]: 6.51 µM [falling, single point]

COc1ccc(OCc2nc3c4c(ncn3n2)-c2ccccc2CC42CCCC2)cc1
cell number change: 23.4% | AC50 [1]: 2.31 µM [rising, full curve, poor fit]

COc1ccc(C)cc1NC(=O)c1cccc(-c2ccc(OC(C)=O)cc2)c1
cell number change: -7.62% | AC50 [2]: 6.51 µM [rising, single point]

Cc1cc2c(c(N3CCOCC3)n1)C(=O)OC2
cell number change: 30.4% | AC50 [1]: 8.2 µM [rising, partial curve, poor fit]

CCCCn1c(O)c(N=Nc2ccccn2)c2ccccc21
cell number change: 7.71% | AC50 [2]: 32.6 µM [falling, single point]

Cc1ccc(C2(C)NC(=O)N(CC(=O)NC(C)c3ccccc3)C2=O)cc1 (centres undefined)
AC50 [2]: 18.4 µM [rising, partial curve]

Cc1ccc(C(=O)NCC(=O)Nc2ccncc2)cc1
AC50 [2]: 23.1 µM [rising, single point]

O=C(CN1CCN(c2ccc(F)cc2)CC1)Nc1cccc(C(F)(F)F)c1
cell number change: 0.204%

CCC(=O)Nc1ccccc1C(=O)OCC(=O)c1ccc2ccccc2c1
AC50 [1]: 2.31 µM [rising, single point]

C=C1CCC[C@]2(C)C[C@H]3OC(=O)C(CN4CCCCC4CO)[C@H]3CC12 (some centres undefined)
cell number change: -46.1% | AC50 [1]: 20.6 µM [falling, partial curve] | AC50 [2]: 23.1 µM [falling, partial curve]

CN1C(=O)N(C)C(c2cccc([N+](=O)[O-])c2)C2=C1CCCC2=O (centres undefined)
cell number change: 7.66% | AC50 [2]: 6.51 µM [rising, single point]

O=C(c1cc(COc2ccc(F)cc2Cl)on1)N1C[C@H]2CC[C@H]1C2
cell number change: 6.16% | AC50 [1]: 6.51 µM [rising, single point]

O=[N+]([O-])c1cc(Br)c(Nc2ccccc2)c([N+](=O)[O-])c1
cell number change: -9.33% | AC50 [2]: 23.1 µM [falling, partial curve]

COc1ccc(N(CC(=O)Nc2ccccc2F)S(=O)(=O)c2ccc(C)c([N+](=O)[O-])c2)cc1
cell number change: -11.7% | AC50 [2]: 29.1 µM [falling, single point]

O=C1C2=C(CCCC2)C(=O)N1c1cccc(OCCBr)c1
cell number change: -12.1% | AC50 [2]: 0.517 µM [falling, full curve]

N=c1sccn1CC(=O)NCCc1ccc(Cl)cc1Cl
cell number change: -33.5% | AC50 [1]: 0.651 µM [falling, full curve, poor fit] | AC50 [2]: 3.66 µM [falling, full curve]

CCN(Cc1ccccc1)C(=O)c1cc(S(=O)(=O)N2CCOCC2)cn1C
cell number change: 10.7% | AC50 [2]: 3.26 µM [rising, single point]

CCCc1nnc(NC(=O)c2oc3ccccc3c2COCC)s1
cell number change: -32.5%

C=CCn1c(COc2ccccc2)nc2ccccc21
cell number change: -8.31% | AC50 [2]: 3.26 µM [rising, single point]

O=C(O)CSc1nnnn1-c1ccccc1
cell number change: -2.32% | AC50 [1]: 0.184 µM [falling, full curve, poor fit]

C=CCn1c(COc2cccc3cccnc23)nnc1SCC(=O)O
cell number change: -10.6% | AC50 [2]: 5.8 µM [falling, full curve]

O=C(NN1CCOCC1)C12CC3CC(CC(C3)C1)C2
cell number change: 6.98% | AC50 [2]: 1.16 µM [falling, single point]

O=C(NCCc1ccccc1)c1ccc(S(=O)(=O)N2CCCC2)cc1
cell number change: 11.4% | AC50 [2]: 0.461 µM [falling, partial curve]

COc1ccc(N(C)C(=S)Oc2ccc(C(=O)Nc3ccccc3)cc2)cc1
cell number change: -15.6% | AC50 [1]: 0.00461 µM [falling, full curve, poor fit]

C=CCNC(=O)/C(C#N)=C/c1ccccc1[N+](=O)[O-]
cell number change: -42.1% | AC50 [1]: 8.2 µM [falling, partial curve, poor fit]

COc1ccc(S(=O)(=O)N2CCN(C(=O)C3CCC3)CC2)cc1
cell number change: 25% | AC50 [1]: 6.51 µM [rising, partial curve, poor fit]

COc1ccc(CN2CCN(C(=O)CCC(=O)Nc3nnc(C(F)(F)F)s3)CC2)cc1F
cell number change: 4.78% | AC50 [2]: 0.326 µM [falling, partial curve, poor fit]

Cc1ccc(NC(=O)CN2CCCN(S(=O)(=O)c3ccc(Br)s3)CC2)cc1
cell number change: 49.4% | AC50 [1]: 6.51 µM [rising, partial curve] | AC50 [2]: 2.59 µM [rising, partial curve]

Cc1ccc(NS(=O)(=O)c2ccc3c(c2)CCC(=O)N3)cc1
cell number change: -13.8% | AC50 [2]: 25.9 µM [falling, single point]

NS(=O)(=O)c1ccc(CCNC(=O)C(=O)NCC2OCCN2C(=O)c2ccc3c(c2)OCO3)cc1 (centres undefined)
cell number change: -24.6% | AC50 [1]: 1.84 µM [falling, partial curve, poor fit]

CN(C)S(=O)(=O)c1cccc(NC(=S)NC2CCCCC2)c1
cell number change: 9.97% | AC50 [2]: 4.61 µM [rising, full curve, poor fit]

COc1ccc(-c2csc(CCn3nc(C)cc3C)n2)cc1
cell number change: 24.1% | AC50 [2]: 2.06 µM [rising, partial curve, poor fit]

CCOC(=O)CNc1nc(Cl)nc(N2CCCCC2)n1
cell number change: -19%

CCC(=O)Nc1cc(C(=O)OCc2ccc(C(=O)Oc3ccccc3)cc2)ccc1C
cell number change: 8.96% | AC50 [2]: 14.6 µM [rising, partial curve, poor fit]

CC(C)Nc1nc(NC(C)C)nc(Oc2ccc(OCc3ccccc3)nn2)n1
AC50 [2]: 29.1 µM [falling, single point]

O=C(NNC(=O)c1cccs1)c1ccc(Cl)nc1
cell number change: -34% | AC50 [1]: 10.3 µM [falling, partial curve, poor fit]

CCOc1ccc(-c2nnc(NC(=O)C3CCCC3)o2)cc1
cell number change: 2.38%

Nc1ccc(C(=O)Nc2cccc3ncccc23)cc1
cell number change: -6.63% | AC50 [2]: 6.51 µM [falling, single point]

N#Cc1ccc2ccn(CC(=O)NCc3ccco3)c2c1
cell number change: 9.02% | AC50 [2]: 13 µM [rising, single point]

S=C(NCCNC(=S)Nc1ccccc1Cl)Nc1ccccc1Cl
cell number change: 7.08%

CCN(CC)C(=O)c1cccc(NC(=O)c2cc(C3CC3)nc3c2cnn3C(C)C)c1
cell number change: -10.6% | AC50 [2]: 0.13 µM [falling, full curve, poor fit]

CCN1C(=O)/C(=C\c2ccc3c(c2)OCO3)C(C(=O)OC)=C1C
cell number change: -15.5% | AC50 [1]: 0.00461 µM [falling, partial curve, poor fit]

Cc1cc(C)c2c(=O)[nH]c(SCC(=O)N3CCOCC3)nc2n1
cell number change: 16.4%

CN1CCCN(C(=O)c2ccc(Br)s2)CC1
cell number change: -17.1%

O=C(NCC1CCCO1)c1cc2c([nH]c3ccccc32)c(-c2cccc(Cl)c2)n1 (centres undefined)
cell number change: 21% | AC50 [2]: 6.51 µM [falling, full curve]

CCOC(=O)N1CCN(c2c(NCCOC)c(=O)c2=O)CC1
AC50 [2]: 0.82 µM [rising, full curve]

Cc1nc2ccccc2n1CCC(=O)Nc1cccc(F)c1
AC50 [1]: 5.8 µM [rising, single point]

CCOC(=O)c1ccc(NC(=O)c2c(C)[nH]c(C(=O)OCC)c2C)cc1
cell number change: -11%

CN(C)C(=O)CNC(=O)CN1C(=O)NC2(CCCc3sccc32)C1=O (centres undefined)
cell number change: 27.6% | AC50 [2]: 0.1 µM [rising, full curve, poor fit]

C=CCN1C(=O)/C(=C/c2ccc(OC(C)=O)c(OCC)c2[N+](=O)[O-])SC1=S
cell number change: -2.23% | AC50 [2]: 29.1 µM [falling, partial curve, poor fit]

Cc1cc(C)nc(SCCC(=O)Nc2ccccc2)n1
cell number change: -76.9% | AC50 [1]: 25.9 µM [falling, partial curve] | AC50 [2]: 0.651 µM [falling, single point]

OCCN(CCO)c1ncnc2c1oc1ccc(Br)cc12
cell number change: 13.3%

Cc1ccccc1NC1=NC(=S)N(CC(N)=O)C12CCOC(C)(C)C2 (centres undefined)
AC50 [2]: 29.1 µM [rising, single point]

O=C1NCCCC1C(=O)N1CCN(C(=O)C2CCCNC2=O)CC1 (centres undefined)
cell number change: 23.5% | AC50 [2]: 29.1 µM [rising, single point]

CCc1cccc(C)c1NC(=O)CCNC(=O)c1cccc(C)c1
cell number change: 12.2% | AC50 [2]: 0.58 µM [falling, single point]
